Counter-ions that a name gives are not always drawn. The list shows a part of the results. This data set is noisy: repeats of one test often differ as much as different tests do.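 ReNCell VM, a human fetal ventral-midbrain neural progenitor line, was differentiated without mitogens. Blinded raters scored images stained for doublecortin (early neurons) or tyrosine hydroxylase (dopaminergic neurons) against untreated wells (0 = no change). Scores were averaged across repeats and both raters, and compounds averaging 2 or more were selected as hits for retesting.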
These compounds were tested on ReNCell VM (assay: dopaminergic neuron differentiation score (TH+ cell fraction vs untreated, manual image score) (score (0 to 3)); higher = more TH+ dopaminergic neuron differentiation). Settings: library: Spectrum; 2 uM; 4 weeks; BDNF 10 ng/ml + GDNF 10 ng/ml.

Dopaminergic neuron differentiation score, inactive:
CN(C)CCOC(=O)C(c1ccccc1)C1(O)CCCC1 (configuration not stated) 0
COc1ccc([C@@H]2Sc3ccccc3N(CCN(C)C)C(=O)[C@@H]2OC(C)=O)cc1 0
C[C@]12CCC(=O)C=C1CC[C@@H]1[C@@H]2[C@@H](O)C[C@@]2(C)[C@H]1CC[C@]2(O)C(=O)COP(=O)(O)O 0
NC(=O)C1(N2CCCCC2)CCN(CCCC(=O)c2ccc(F)cc2)CC1 0
COc1cc2oc3cc(OC)c(OC)c(CC=C(C)C)c3c(=O)c2c(O)c1CC=C(C)C 0

Same assay, conditions: library: Tocriscreen; 2 uM; 4 weeks; BDNF 10 ng/ml + GDNF 10 ng/ml

Dopaminergic neuron differentiation score, inactive:
Fc1ccc(-c2nc3n(c2-c2ccncc2)CCS3)cc1 0
NCCNC(=O)c1ccc(Cl)cn1 [Lazabemide hydrochloride] 0
c1ccc(COCCCc2c[nH]cn2)cc1 [Proxyfan Oxalate] 0
CC(Oc1ccc(O)cc1)(P(=O)(O)O)P(=O)(O)O 0
CC(C)c1ccc2c(c1)CC[C@H]1[C@](C)(CN)CCC[C@]21C [Lylamine hydrochloride] 0
CCn1c(=O)n(C2=C(CO)CN(CC3CCCCCCC3)CC2)c2ccccc21 0
C[C@H](NC[C@H](O)CP(=O)(O)Cc1ccccc1)c1ccc(Cl)c(Cl)c1 0

Two records drawn at random from the list so far:
Dopaminergic neuron differentiation score, inactive:
NCCNC(=O)c1ccc(Cl)cn1 [Lazabemide hydrochloride] 0
C[C@H](NC[C@H](O)CP(=O)(O)Cc1ccccc1)c1ccc(Cl)c(Cl)c1 0
